Laboratory results from PMC2275482.
No constants are given. Whether binding was seen depends on the method and setting. Binding seen in cells or lysates may run through a third protein. Some results given as binding are weak or reduced against the parent protein; the word gives no strength. Where a sequence is shown, tags or fusion partners need not be part of it.

Sequences of proteins named here, by UniProt entry; tags and fusion partners are left off.
UniProt Q13153: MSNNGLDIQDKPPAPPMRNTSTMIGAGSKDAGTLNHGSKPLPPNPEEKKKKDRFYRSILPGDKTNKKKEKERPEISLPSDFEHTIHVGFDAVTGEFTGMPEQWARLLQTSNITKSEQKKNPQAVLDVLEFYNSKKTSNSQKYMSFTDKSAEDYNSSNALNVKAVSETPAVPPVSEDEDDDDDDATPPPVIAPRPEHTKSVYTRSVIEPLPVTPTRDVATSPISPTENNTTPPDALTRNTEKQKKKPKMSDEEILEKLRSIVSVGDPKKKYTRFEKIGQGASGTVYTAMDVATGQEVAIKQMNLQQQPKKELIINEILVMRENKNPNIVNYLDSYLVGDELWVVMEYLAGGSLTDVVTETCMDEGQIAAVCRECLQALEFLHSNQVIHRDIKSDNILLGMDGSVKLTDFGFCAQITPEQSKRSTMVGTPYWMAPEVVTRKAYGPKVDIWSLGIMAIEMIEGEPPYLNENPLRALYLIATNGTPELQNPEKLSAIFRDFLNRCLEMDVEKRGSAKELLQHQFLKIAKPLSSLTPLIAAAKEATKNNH

Target: T1, Flag-tagged Ebp1 (ErbB3 binding protein; CMV10-Ebp1 p52) (UniProt Q9UQ80)
T1 sequence: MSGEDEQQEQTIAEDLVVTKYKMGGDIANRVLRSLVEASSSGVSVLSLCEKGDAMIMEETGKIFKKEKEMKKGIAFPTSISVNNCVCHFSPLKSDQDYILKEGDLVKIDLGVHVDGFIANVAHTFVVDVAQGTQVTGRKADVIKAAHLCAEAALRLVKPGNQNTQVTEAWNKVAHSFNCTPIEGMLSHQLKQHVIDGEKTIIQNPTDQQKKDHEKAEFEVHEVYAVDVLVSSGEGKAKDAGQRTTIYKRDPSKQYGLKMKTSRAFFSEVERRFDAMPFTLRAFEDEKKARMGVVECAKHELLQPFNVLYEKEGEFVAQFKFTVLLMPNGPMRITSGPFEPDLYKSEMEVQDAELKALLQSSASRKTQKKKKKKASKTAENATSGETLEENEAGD
Assay: co-IP; Flag-Ebp1 immunoprecipitated from MCF-7 cell lysates with anti-Flag M2 agarose beads and blotted for PAK1 and Flag-Ebp1; cells untreated or treated with HRG 20 ng/ml for 10 min

| binding | Substance |
| --- | --- |
| binds | PAK1 (wild type), from the CMV6M-PAK1 expression vector (from UniProt Q13153 1-545) (enzyme) |
| binds | PAK1, endogenous in MCF-7 cells (from UniProt Q13153 1-545) (enzyme) |
